{
  "sequences": {"note": "By UniProt entry, the sequences of proteins in these tests, tags left out.", "UniProt Q9ES70": "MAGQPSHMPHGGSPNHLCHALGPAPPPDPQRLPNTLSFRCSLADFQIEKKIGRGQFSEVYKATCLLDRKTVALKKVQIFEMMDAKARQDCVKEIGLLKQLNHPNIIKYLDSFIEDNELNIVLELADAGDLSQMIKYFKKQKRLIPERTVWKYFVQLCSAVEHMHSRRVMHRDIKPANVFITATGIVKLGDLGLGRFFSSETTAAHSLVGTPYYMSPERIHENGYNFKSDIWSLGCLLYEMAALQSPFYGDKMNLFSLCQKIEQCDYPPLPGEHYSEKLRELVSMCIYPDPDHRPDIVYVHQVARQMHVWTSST"},
  "source": "paper PMC7267881",
  "molecules": {"B1": {"name": "HA-tagged LNX1 (ligand of numb-protein X 1) (enzyme, UniProt O70263 1-728)", "chain": "MNQPDLADDPDPSPEPLCIVCGQNHSPEENHFYTYTEDVDDDLICHICLQALLDPLDTPCGHTYCTLCLTNFLVEKDFCPVDRKPVVLQHCKKSSILVNKLLNKLLVTCPFTEHCTEVLQRCDLQHHFQTSCKGASHYGLTKDRKRRSQDGCPDGCASLMATTLSPEVSAAATISLMTDEPGLDNPAYVSSVEDGEPVANSSDSGRSNRTRARPFERSTMRSRSFKKINRALSALRRTKSGSVVANHVDQGRDNSENTTVPEVFPRLFHLIPDGEITSIKINRADPSESLSIRLVGGSETPLVHIIIQHIYRDGVIARDGRLLPGDIILKVNGMDISNVPHNYAVRLLRQPCQVLRLTVLREQKFRSRSNAHVPDSYGPRDDSFHVILNKSSPEEQLGIKLVRRVDEPGVFIFNVLNGGVADRHGQLEENDRVLAINGHDLRFGSPESAAHLIQASERRVHLVVSRQVRQSSPDIFQEAGWISNGQQSPGPGERNTASKPAATCHEKVVSVWKDPSESLGMTVGGGASHREWDLPIYVISVEPGGVISRDGRIKTGDILLNVNGIELTEVSRTEAVAILKSAPSSVVLKALEVKEQEAQEDCSPAALDSNHNVTPPGDWSPSWVMWLELPQYLCNCKDVILRRNTAGSLGFCIVGGYEEYSGNKPFFIKSIVEGTPAYNDGRIRCGDILLAVNGRSTSGMIHACLARMLKELKGRITLTIASWPGTFL"}, "B2": {"name": "LNX1, endogenous (enzyme, UniProt O70263 1-728)", "chain": "B1 chain"}},
  "key": {"[1]": {"target": "T1, glutathione S-transferase (GST)-LNX1 fusion protein (UniProt O70263)", "T1 sequence": "B1 chain", "test": "pull-down; in vitro GST pulldown with GST-LNX1 fusion protein and Myc-NEK6"}, "[2]": {"target": "Myc-tagged NEK6 (NIMA-related expressed kinase 6) (UniProt Q9ES70)", "test": "co-IP; HA-LNX1 and Myc-NEK6 cotransfected (RAW 264.7 in the text, HEK-293T in the legend); lysate immunoprecipitated with anti-Myc antibody and protein A/G beads overnight at 4°C; immunoblot"}, "[3]": {"target": "NEK6, endogenous (mouse (endogenous in L929, RAW 264.7 and BMDMs)) (UniProt Q9ES70)", "test": "co-IP; LNX1-deficient cells transfected with HA-tagged LNX1; immunoprecipitation in the presence and absence of LNX1"}, "[4]": {"target": "NEK6, endogenous (mouse (endogenous in L929, RAW 264.7 and BMDMs)) (UniProt Q9ES70)", "test": "co-IP; endogenous proteins in RAW 264.7 cells, stimulated with 10 μg/ml gamma-irradiated M. tuberculosis for 24 h; immunoprecipitation"}, "[5]": {"target": "NEK6, endogenous (mouse (endogenous in L929, RAW 264.7 and BMDMs)) (UniProt Q9ES70)", "test": "co-IP; endogenous proteins in BMDMs from Lnx1 fl/fl and Lnx1 fl/fl Lyz2-Cre mice, stimulated with 10 μg/ml gamma-irradiated M. tuberculosis for 24 h; immunoprecipitation"}, "[6]": {"target": "NEK6, endogenous (mouse (endogenous in L929, RAW 264.7 and BMDMs)) (UniProt Q9ES70)", "test": "co-IP; endogenous proteins in L929 cells transfected with miR-325-3p mimic or inhibitor; lysate immunoprecipitated with anti-NEK6 antibody, LNX1 by immunoblot"}},
  "note": "No constants are given. Whether binding was seen depends on the method and setting. In cells and extracts the contact can be indirect. Some results given as binding are weak or reduced against the parent protein; the word gives no strength. For part of these data: Sequences can lack the tags named with a protein.",
  "data": [
    {"molecule": "Myc-tagged NEK6 (NIMA-related expressed kinase 6) (from UniProt Q9ES70 1-313) (enzyme)", "values": [
      {"measurement": "binding", "setting": "[1]", "value": "binds"}
    ]},
    {"molecule": "B1", "values": [
      {"measurement": "binding", "setting": "[2]", "value": "binds"},
      {"measurement": "binding", "setting": "[3]", "value": "binds"}
    ]},
    {"molecule": "B2", "values": [
      {"measurement": "binding", "setting": "[4]", "value": "binds"},
      {"measurement": "binding", "setting": "[5]", "value": "binds"},
      {"measurement": "binding", "setting": "[6]", "value": "binds"}
    ]}
  ]
}
